Measured values published in PMC4820689.
These are yes or no findings as the source states them, for the method shown. Binding seen in cells or lysates may run through a third protein. Some binding calls cover weakened binding; strength is not graded here. Where a sequence is shown, tags or fusion partners need not be part of it.

Target: T1, pmut3 KcsA (Q58A, T61S, R64D triple mutant) (Streptomyces lividans) (UniProt P0A334)
T1 sequence: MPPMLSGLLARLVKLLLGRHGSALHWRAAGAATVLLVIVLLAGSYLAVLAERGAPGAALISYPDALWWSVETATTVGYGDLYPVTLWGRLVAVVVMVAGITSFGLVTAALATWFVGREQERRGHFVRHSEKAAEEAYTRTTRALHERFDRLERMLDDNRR
Assay: pull-down; pmut3 KcsA used as the immobilised channel in the toxin pull-down from venom; data not shown; only the target purified

B1: Tx7335 (peptide, UniProt C0HJT4 1-63)
chain: LECHRRGSFISDGKITCSAKKTFCCKMYEKIFGIYWYGCAKTYTEKNTWNVYSKCCTTNLCNT
For B1, the binding was “binds”.
